# In patent US20030068675:
# Columns and labels:
# Test in all cases: EMSA
# Conditions in all cases: purified recombinant protein; protein details: MBP fusion
# ZFP SBS#326 (synthetic) = system: T1, ZFP SBS#326 (synthetic)
# T1 sequence: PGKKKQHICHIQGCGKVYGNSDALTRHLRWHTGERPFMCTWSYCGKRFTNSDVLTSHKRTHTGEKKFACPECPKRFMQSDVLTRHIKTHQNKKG
# ZFP SBS#580 (synthetic) = system: T2, ZFP SBS#580 (synthetic)
# T2 sequence: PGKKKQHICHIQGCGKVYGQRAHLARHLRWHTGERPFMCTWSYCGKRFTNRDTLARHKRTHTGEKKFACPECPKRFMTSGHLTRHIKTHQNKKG
# ZFP SBS#204 (synthetic) = system: T3, ZFP SBS#204 (synthetic)
# T3 sequence: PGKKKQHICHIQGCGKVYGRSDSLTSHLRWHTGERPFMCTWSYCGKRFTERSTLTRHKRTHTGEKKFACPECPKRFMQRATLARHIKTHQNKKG
# ZFP SBS#201 (synthetic) = system: T4, ZFP SBS#201 (synthetic)
# T4 sequence: T3 sequence with T81D, A83R
# ZFP SBS#202 (synthetic) = system: T5, ZFP SBS#202 (synthetic)
# T5 sequence: T3 sequence with T81D
# ZFP SBS#203 (synthetic) = system: T6, ZFP SBS#203 (synthetic)
# T6 sequence: T3 sequence with A83R
# ZFP SBS#497 (synthetic) = system: T7, ZFP SBS#497 (synthetic)
# T7 sequence: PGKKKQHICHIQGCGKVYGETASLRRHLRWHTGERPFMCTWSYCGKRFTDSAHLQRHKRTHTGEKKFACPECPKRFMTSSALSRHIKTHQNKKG
# ZFP SBS#215 (synthetic) = system: T8, ZFP SBS#215 (synthetic)
# T8 sequence: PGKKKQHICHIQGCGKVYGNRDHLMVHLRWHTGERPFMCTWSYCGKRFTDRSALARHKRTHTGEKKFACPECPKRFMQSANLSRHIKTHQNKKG
# ZFP SBS#432 (synthetic) = system: T9, ZFP SBS#432 (synthetic)
# T9 sequence: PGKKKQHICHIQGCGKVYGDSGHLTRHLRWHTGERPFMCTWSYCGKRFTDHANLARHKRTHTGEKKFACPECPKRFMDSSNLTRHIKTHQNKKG
# ZFP SBS#214 (synthetic) = system: T10, ZFP SBS#214 (synthetic)
# T10 sequence: T2 sequence with N50Q, R51S, D52S, T78N, S79R, G80D, H81T, T83A
# ZFP SBS#213 (synthetic) = system: T11, ZFP SBS#213 (synthetic)
# T11 sequence: T2 sequence with N50Q, R51S, D52S, T78Q, G80S, H81A, T83A
# ZFP SBS#445 (synthetic) = system: T12, ZFP SBS#445 (synthetic)
# T12 sequence: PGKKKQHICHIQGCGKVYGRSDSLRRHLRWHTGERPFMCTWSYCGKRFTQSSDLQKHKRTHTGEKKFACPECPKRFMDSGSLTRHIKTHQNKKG
# ZFP SBS#561 (synthetic) = system: T13, ZFP SBS#561 (synthetic)
# T13 sequence: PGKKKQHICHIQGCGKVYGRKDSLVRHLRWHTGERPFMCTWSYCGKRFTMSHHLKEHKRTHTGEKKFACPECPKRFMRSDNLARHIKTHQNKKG
# ZFP SBS#348 (synthetic) = system: T14, ZFP SBS#348 (synthetic)
# T14 sequence: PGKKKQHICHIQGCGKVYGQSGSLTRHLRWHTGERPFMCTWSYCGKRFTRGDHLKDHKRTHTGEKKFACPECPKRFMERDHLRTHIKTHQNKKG
# ZFP SBS#347 (synthetic) = system: T15, ZFP SBS#347 (synthetic)
# T15 sequence: T14 sequence with D80Q, R83A
sequence,measurement,setting,value
GTATCTGTT (double strand),Kd,ZFP SBS#326 (synthetic),> 1 µM
GGTGTTGGAG (double strand),Kd,ZFP SBS#580 (synthetic),> 1 µM
GCAGCCTTG (double strand),Kd,ZFP SBS#204 (synthetic),> 1 µM
same,Kd,ZFP SBS#201 (synthetic),> 1 µM
same,Kd,ZFP SBS#202 (synthetic),> 1 µM
same,Kd,ZFP SBS#203 (synthetic),> 1 µM
GTTTGCGTC (double strand),Kd,ZFP SBS#497 (synthetic),> 1 µM
GAAGTCTGT (double strand),Kd,ZFP SBS#215 (synthetic),> 1 µM
GACGACGGC (double strand),Kd,ZFP SBS#432 (synthetic),> 1 µM
GTTGCTGGA (double strand),Kd,ZFP SBS#214 (synthetic),> 1 µM
same,Kd,ZFP SBS#213 (synthetic),> 1 µM
GTCGCAGTGA (double strand),Kd,ZFP SBS#445 (synthetic),> 1 µM
GAGTGTGTGA (double strand),Kd,ZFP SBS#561 (synthetic),> 1 µM
TGCGGGGCAA (double strand),Kd,ZFP SBS#348 (synthetic),> 1 µM
same,Kd,ZFP SBS#347 (synthetic),> 1 µM

# Changes are numbered by the printed parent chain. Where a protein sequence is shown, tags need not be part of it.
